# Laboratory results from the supplement of paper PMC10735217.
# This is one part of the list. Repeats in this data set agree poorly, so a single value says little.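 Human kidney-derived cells stably carry a construct in which eight TEAD-binding elements drive luciferase, measured by luminescence in a drug-repurposing library screen. A hit is any compound whose signal exceeds the plate mean by more than five robust Z scores.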
# Test system: HEK293A TEAD-LUC reporter
# Assay: TEAD-luciferase reporter activity (YAP activation), robust Z score vs plate; higher = stronger YAP/TEAD activation
# Settings: 24 h
Compound,TEAD-luciferase reporter activity (compound concentration: 200 nM),TEAD-luciferase reporter activity (compound concentration: 2 uM),TEAD-luciferase reporter activity (compound concentration: 10 uM)
C=C[C@@]1(C)CC(=O)[C@]2(O)[C@@]3(C)[C@@H](O)CCC(C)(C)[C@@H]3[C@H](O)[C@H](OC(C)=O)[C@@]2(C)O1 [Colforsin],inactive: -2.19,inactive: -1.18,inactive: -0.851
O=C([O-])CCC(=O)OCC(NC(=O)C(Cl)Cl)C(O)c1ccc([N+](=O)[O-])cc1 (centres undefined),inactive: 3.85,inactive: -1.71,inactive: 2.1
CCC1(CC)O[C@@H]2C[C@H]3[C@@H]4CCC5=CC(=O)C=CC5(C)[C@@]4(F)[C@@H](O)CC3(C)C2(C(=O)CO)O1 (some centres undefined),inactive: 0.534,inactive: -0.607,inactive: -0.905
CC(CCc1ccc(C(N)=O)cc1)NCC(O)c1ccc(O)c(O)c1 (centres undefined),inactive: 0.996,inactive: -0.895,inactive: -0.519
CCOC(=O)C(C)c1ccc2cc(OC)ccc2c1 (centres undefined),inactive: 1.02,inactive: 0.149,inactive: 0.567
O=C(O)Cc1ccc2occc2c1,inactive: 4.56,inactive: -1.54,inactive: 2.5
C[C@H]1C[C@@H]2[C@H]([C@@H](O)C[C@@]3(C)[C@H]2CC[C@]3(O)C(=O)CO)[C@@]2(C)C=CC(=O)C=C12 [Methylprednisolone],–,inactive: 0.619,–
C[C@H]1C[C@@H]2[C@H]([C@@H](O)C[C@@]3(C)[C@H]2CC[C@]3(O)C(=O)CO)[C@@]2(C)C=CC(=O)C=C12,inactive: 0.384,–,inactive: 2.38
CC(C)(O)CC[C@H](C[C@H](O)[C@H](Cc1cccc(F)c1)NC(=O)c1cnc2ccccc2n1)C(N)=O,active: 7.96,inactive: -0.0563,inactive: -0.865
CCCNCC(O)c1oc2ccccc2c1CCc1ccccc1 (centres undefined),inactive: -0.711,inactive: 2.26,inactive: 1.42
CC(C)S(=O)(=O)N[C@@H]1COC[C@@H]1Oc1ccc(-c2ccc(C#N)s2)cc1,inactive: -0.988,inactive: 1.59,inactive: 1.63
COc1cc(C)c(/C=C/C(C)=C/C=C/C(C)=C/C(=O)O)c(C)c1C [acitretin],–,inactive: -1.41,–
COc1cc(C)c(/C=C/C(C)=C/C=C/C(C)=C/C(=O)O)c(C)c1C,inactive: -0.39,–,inactive: -1.71
N#Cc1cc(Cl)cc(Oc2cc(OCc3n[nH]c4nc(N)ccc34)ccc2Cl)c1,inactive: 1.38,inactive: -2.02,inactive: 0.623
Cn1ccc2c1C(O)CCN(CCCN1CCN(c3ccc(F)cc3)CC1)C2=O (centres undefined),inactive: -0.837,inactive: 1.25,inactive: -0.431
